Consider 2 molecules from article PMC12591158.

Amino acid sequences for entries named in this document (tags omitted). A change or cut given only in a name is not applied to a line headed by its entry.
UniProt Q14790: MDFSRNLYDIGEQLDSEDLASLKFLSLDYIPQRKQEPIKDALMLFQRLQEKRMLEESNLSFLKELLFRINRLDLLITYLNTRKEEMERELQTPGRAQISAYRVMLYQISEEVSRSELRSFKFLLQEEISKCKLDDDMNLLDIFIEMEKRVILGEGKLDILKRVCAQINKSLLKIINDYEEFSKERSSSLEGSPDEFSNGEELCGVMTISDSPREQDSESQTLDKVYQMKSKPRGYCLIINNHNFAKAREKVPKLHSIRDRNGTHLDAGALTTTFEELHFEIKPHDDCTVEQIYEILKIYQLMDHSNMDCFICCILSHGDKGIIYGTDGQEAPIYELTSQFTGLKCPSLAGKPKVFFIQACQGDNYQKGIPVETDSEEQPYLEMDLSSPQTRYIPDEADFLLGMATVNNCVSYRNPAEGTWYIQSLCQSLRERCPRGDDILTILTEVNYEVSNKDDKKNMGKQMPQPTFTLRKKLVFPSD
UniProt P0DTC6: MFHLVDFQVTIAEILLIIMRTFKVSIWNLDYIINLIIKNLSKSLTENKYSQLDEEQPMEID

The target of the test is Myc-CASP8-C (C-terminal construct of caspase-8, small subunit p10) (human) (UniProt Q14790). The test can be described thus: co-IP.

No constants are given. Whether binding was seen depends on the method and setting. In cells and extracts the contact can be indirect. A result given as binding can be weak or reduced; the word gives no strength. Where a sequence is shown, tags or fusion partners need not be part of it.

B1: GFP-ORF6-52-61 (peptide, UniProt P0DTC6 52-61)
chain: LDEEQPMEID
As for B1, the binding result was “binds”.

B2: GFP-ORF6-C (C-terminal domain of SARS-CoV-2 ORF6) (domain or fragment, UniProt P0DTC6 43-61)
chain: SLTENKYSQLDEEQPMEID
Regarding B2, the binding entry is “binds”.
